Test results reported in paper PMC3397928.
Results are given in words; binding and its absence hold for the method and conditions named. In cells and extracts the contact can be indirect. Binding can be weak; no strength is given.

Amino acid sequences for entries named in this document (tags omitted). A change or cut given only in a name is not applied to a line headed by its entry.
UniProt P15304: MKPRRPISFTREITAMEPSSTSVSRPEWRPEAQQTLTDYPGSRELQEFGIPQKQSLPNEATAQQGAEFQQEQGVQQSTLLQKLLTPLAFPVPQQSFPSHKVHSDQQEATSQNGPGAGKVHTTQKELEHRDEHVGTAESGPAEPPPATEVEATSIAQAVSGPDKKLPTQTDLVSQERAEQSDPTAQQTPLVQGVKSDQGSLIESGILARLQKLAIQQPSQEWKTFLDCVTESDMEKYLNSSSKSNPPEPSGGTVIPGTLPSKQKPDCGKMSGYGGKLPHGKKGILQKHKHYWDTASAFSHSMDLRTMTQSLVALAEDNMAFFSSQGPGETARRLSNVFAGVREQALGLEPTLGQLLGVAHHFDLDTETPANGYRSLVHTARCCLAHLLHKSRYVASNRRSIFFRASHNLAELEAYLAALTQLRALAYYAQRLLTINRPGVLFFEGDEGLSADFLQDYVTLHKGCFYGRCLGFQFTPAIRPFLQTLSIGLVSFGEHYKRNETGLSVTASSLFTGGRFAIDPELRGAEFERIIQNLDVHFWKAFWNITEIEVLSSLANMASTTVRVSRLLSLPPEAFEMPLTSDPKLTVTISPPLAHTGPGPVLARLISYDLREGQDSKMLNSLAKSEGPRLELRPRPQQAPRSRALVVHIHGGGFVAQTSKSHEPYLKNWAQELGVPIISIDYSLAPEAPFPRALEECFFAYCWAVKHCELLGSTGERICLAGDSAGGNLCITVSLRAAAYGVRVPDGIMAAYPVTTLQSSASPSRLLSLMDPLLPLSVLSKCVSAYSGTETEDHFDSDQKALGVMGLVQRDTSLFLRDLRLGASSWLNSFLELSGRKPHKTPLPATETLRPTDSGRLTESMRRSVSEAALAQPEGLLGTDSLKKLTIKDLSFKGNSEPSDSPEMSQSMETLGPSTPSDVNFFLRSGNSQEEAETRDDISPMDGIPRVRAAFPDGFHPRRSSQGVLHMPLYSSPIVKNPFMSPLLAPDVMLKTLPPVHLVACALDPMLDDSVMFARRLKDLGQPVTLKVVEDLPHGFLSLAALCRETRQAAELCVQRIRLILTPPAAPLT

Biological target: hormone-sensitive lipase (HSL) (rat (endogenous in primary epididymal adipocytes)) (UniProt P15304)
Assay: co-IP; pellet fraction lysate of primary adipocytes from sedentary control (CG) and habitual exercise (EG) rats, pre-cleared with rabbit normal IgG and protein A/G agarose; primary antibody to HSL or ATGL with protein A/G agarose beads at 4°C overnight; beads washed 4 times in ice-cold PBS; immunoblotting

B1: perilipin 1 (protein, UniProt P43884 1-517)
chain: MSMNKGPTLLDGDLPEQENVLQRVLQLPVVSGTCECFQKTYNSTKEAHPLVASVCNAYEKGVQGASNLAAWSMEPVVRRLSTQFTAANELACRGLDHLEEKIPALQYPPEKIASELKGTISTRLRSARNSISVPIASTSDKVLGATLAGCELALGMAKETAEYAANTRVGRLASGGADLALGSIEKVVEYLLPPDKVESAPSSGRQKTQKAPKAKPSLLRRVSTLANTLSRHTMQTTARALKRGHSLAMWIPGVAPLSSLAQWGASAAMQVVSRRQSEVRVPWLHNLAASKDENHEDQTDTEGEETDEEEEEEESEAEENVLREVTALPTPLGFLGGVVHTVQKTLQNTISAVTWAPAAVLGTVGRILHLTPAQAVSSTKGRAMSLSDALKGVTDNVVDTVVHYVPLPRLSLMEPESEFQDIDNPPAEVERKGSGSRPASPESTARPGQPRAACAVRGLSAPSCPDLDDKTETSARPGLLAMPREKPARRVSDSFFRPSVMEPILGRTQYSQLRKKS
binding: binds
